# Experimental data from PubChem BioAssay AID2685 (National Center for Advancing Translational Sciences (NCATS), 2010).
# About 2,100 (0.66%) of roughly 320,000 compounds were called active. Inconclusive means that the source gave no clear call. Such entries were picked first, then a sample of the others. Calls come from the whole dose curve; as a rule, active = well fitted inhibition curve with a large enough effect in the signal ratio, with a control signal flat (not every such curve was filed as active); inconclusive = small, poorly fitted or top-dose-only effect, or effect the other way, or a change in a side signal; inactive = flat fitted curve, though single readings scatter; the % refers to the signal ratio. A potency beside an inconclusive call is a rough fit, not a confirmed value.
# Assay: qHTS Assay for Lipid Storage Modulators in Drosophila S3 Cells
# Conditions: BODIPY lipid droplet fluorescence, 18-24 h, cells fed with added oleic acid; lipid storage change, negative = inhibition: at 46.1 µM (top of the series) unless noted
# Outline: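 Drosophila S3 cells loaded with oleic acid (400 uM, as added) and compounds at several concentrations; lipid droplets imaged by 488-nm laser-scanning cytometry, 500–530 nm intensity and object ratio to cell channel. Percent activity normalized to 20 uM Triacsin C.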
# % is set by controls: 0 for no effect and ±100 for the full control effect; potency is the fitted concentration of half-maximal effect.
Structure (SMILES),"lipid storage change, negative = inhibition",Potency
O=C(c1ccc2c3c(cccc13)CC2)C1CCCN(C(=O)c2cc[n+]([O-])cc2)C1 (stereo not drawn),inconclusive: 11.5%,–
Cc1c(C)c2ccc(OCC(=O)NC3CCN(Cc4ccccc4)CC3)cc2oc1=O,inconclusive: -19.7%,–
O=C(c1ccccc1)N1CCN(c2ccc([N+](=O)[O-])c(N3CCOCC3)c2)CC1,inconclusive: 17.1%,–
O=C(O)c1ccc(N/N=C/C=C/c2ccccc2)cc1,inconclusive: 24%,–
Nc1nc(SCC(=O)Nc2ccccc2)[nH]c(=O)c1-c1ccccc1,–,"inconclusive: 0.82 µM [falling, full curve, poor fit]"
Cc1cccc(N(C(=O)c2csnn2)C(C(=O)NC2CCCCC2)c2ccccn2)c1C (stereo not drawn),–,"inconclusive: 25.9 µM [activator, single point]"
FC(F)(F)c1cccc(NC(=S)NCC(c2cccnc2)N2CCOCC2)c1 (stereo not drawn),inactive,–
CC1COc2ccccc2N1S(=O)(=O)c1cc(Cl)ccc1Cl (stereo not drawn),inconclusive: 20.3%,–
Cc1ccc2c(c1)N(C(=O)CCC(=O)N1CCC(C(N)=O)CC1)CCO2,inconclusive: 1.19%,–
O=C(CSc1nc(=O)n2cc(Cl)ccc2n1)NCCc1ccccc1,inconclusive: 38%,–
COc1ccc(S(=O)(=O)NCC2CCCN(C(=O)CN3CCCCC3)C2)cc1 (stereo not drawn),inconclusive: 0.333%,–
CC1C(=O)N2CCCc3cc(NC(=O)C(=O)NCCc4c[nH]c5ccccc45)cc1c32 (stereo not drawn),inconclusive: 55.6%,–
COCCC1CCCCN1C(=O)c1cc(COc2ccc(C)nc2)on1 (stereo not drawn),inconclusive: -40.2%,–
COc1ccc(S(=O)(=O)CC(=O)c2cc3cccc(C)c3oc2=O)cc1,–,"inconclusive: 5.8 µM [falling, single point]"
C=C1CC(C(=O)N/N=C/c2ccc(O)cc2)C1,inconclusive: 7.35%,–
Cc1nn(S(=O)(=O)c2ccc(F)cc2)c(C)c1S(=O)(=O)N1CCCCC1,–,"inconclusive: 29.1 µM [activator, single point]"
C=CCN1C(=O)C(O)=C(C(C)=O)C1c1ccccc1F (stereo not drawn),–,"inconclusive: 4.61 µM [falling, single point]"
COc1ccc(NC(=O)/C(=C/c2cccs2)NC(=O)c2ccco2)cc1,–,"inconclusive: 0.651 µM [falling, single point]"
Cc1ccc(S(=O)(=O)NCC(=O)OCC(=O)NCCc2ccccc2)cc1,inconclusive,–
COC(=O)c1ccc(CSCc2ccc(C#N)cc2)cc1,inconclusive: 16.5%,–
Nc1nnc(CCOc2ccccc2Cl)s1,inconclusive: 0.172%,–
COc1ccccc1C(C)NC(=O)CN(C)CC(=O)Nc1c(C)cccc1C (stereo not drawn),inconclusive: 9%,–
COc1cccc(CC(=O)Nc2nc3ccccc3[nH]2)c1,–,"inconclusive: 32.6 µM [falling, single point]"
C#CCOc1nc(C)cc(C)c1S(=O)(=O)c1ccccc1C,inconclusive: 10.5%,–

Structure (SMILES),"lipid storage change, negative = inhibition",Potency
O=C(CN(Cc1cccs1)S(=O)(=O)c1ccc(S(=O)(=O)NC2CCCCC2)cc1)Nc1ccccc1,–,"inconclusive: 29.1 µM [falling, single point]"
COc1ccc(C(=O)O)cc1S(=O)(=O)NC(C)(C)C,inconclusive: -24.4%,–
O=C(NCc1ccc2c(c1)OCO2)c1cccc(F)c1,inconclusive: 64.4%,–
COc1ccc(CC(=O)N(C)CC(=O)Nc2ccccc2Cl)cc1S(=O)(=O)N1CCOCC1,–,"inconclusive: 2.31 µM [activator, single point]"
COc1ccc(OC)c(NC(=O)CSc2ccccc2)c1,–,"inconclusive: 6.51 µM [activator, single point]"
CC(=O)Nc1ccc(NC(=O)CN(c2cccc(C)c2)S(C)(=O)=O)cc1,inconclusive: 3.38%,–
CCOc1ccc(C(=O)C(C)OC(=O)Cn2[nH]c(=O)c3ccccc3c2=O)cc1 (stereo not drawn),–,"inconclusive: 29.1 µM [activator, single point]"
COc1ccc(NC(=O)C2CCCCN2S(=O)(=O)c2ccc(F)cc2)c(OC)c1 (stereo not drawn),inconclusive: -22.6%,–
Cc1ccc(S(=O)(=O)N2CCOC23CCN(C(=O)c2ccc(Cl)cc2Cl)CC3)cc1,inconclusive: -181%,–
Cc1[nH]c2ccccc2c1/C=C/C(=O)c1ccncc1,–,"inconclusive: 29.1 µM [falling, single point]"
O=C(COC(=O)COc1cccc(C(F)(F)F)c1)NC1CCS(=O)(=O)C1 (stereo not drawn),–,"inconclusive: 20.6 µM [falling, single point]"
Cc1cc(C)c2nc(-c3ccccn3)cc(C(=O)NCCc3ccc(S(N)(=O)=O)cc3)c2c1,inconclusive: -17.9%,–
COc1ccc(C(=O)NCC(=O)Nc2ccc(F)cc2)cc1OC,–,"inconclusive: 6.51 µM [activator, single point]"
COc1cc(/C=N/NS(=O)(=O)c2ccc(C)c([N+](=O)[O-])c2)cc([N+](=O)[O-])c1O,–,"inconclusive: 20.6 µM [activator, single point]"
CN(c1ccccc1)S(=O)(=O)c1ccc(Cl)c(C(=O)OCC(=O)NCc2ccco2)c1,inconclusive: -7.05%,–
COc1ccc(S(=O)(=O)N2CCCCC2)cc1NC(=O)CSc1nnc(C2CC2)n1C,inconclusive: 9.53%,–
O=S(=O)(N/N=C\c1c(F)cccc1Cl)c1ccc(Cl)cc1,inconclusive: 16%,–
COc1cc(NC(=O)c2ccc(Cl)cc2)c2ncccc2c1,–,"inconclusive: 20.6 µM [falling, single point]"
Cc1sc2ncnc(NCC(c3ccccc3)N(C)C)c2c1C (stereo not drawn),inconclusive: 67.3%,–
O=c1c2cc3c(nc2[nH]c(=S)n1-c1ccccc1)CCCC3,inactive,–
COc1ccc2c(c1OC)C(=O)OC2Nc1nc(-c2cc3cc(Br)ccc3oc2=O)cs1 (stereo not drawn),–,"inconclusive: 0.461 µM [activator, full curve, poor fit]"
COC(=O)C1=C(C)NC(C)=C(C(=O)OC)C1C(=O)OCC(=O)Nc1ccc(C(C)=O)cc1,inconclusive: 6.07%,–
CC(C)C(=O)Nc1nnc(S(=O)(=O)N2CCCCCC2)s1,inconclusive: 33.6%,–
COc1ccccc1N1CCN(C(=O)c2cc(-c3ccc(Br)cc3)on2)CC1,inconclusive: 12% [at 9.22 µM],–

# Some values from the entries so far:
# In Potency, `COc1cc(NC(=O)c2ccc(Cl)cc2)c2ncccc2c1` has the entry inconclusive: 20.6 µM [falling, single point]
# In lipid storage change, negative = inhibition, `O=C(NCc1ccc2c(c1)OCO2)c1cccc(F)c1` has the entry inconclusive: 64.4%
